The record followed here is publication PMC5834211.

Results are given in words; binding and its absence hold for the method and conditions named. Binding seen in cells or lysates may run through a third protein. A result given as binding can be weak or reduced; the word gives no strength. Sequences can lack the tags named with a protein.

In the assay the target is Flag-N-MDA5 (CARD domain-containing N-terminal fragment of MDA5). Put plainly: co-IP; 293T cells cotransfected; whole cell lysates immunoprecipitated with anti-Flag beads, immunoblotted with anti-HA and anti-Flag (S5A, Fig 5I, S6A); in S5E with 20 ng Flag-MDA5 and intracellular HMW Poly(I:C) at the indicated time points. (In general: A western blot detects proteins with antibodies after separation by electrophoresis.)

B1: HA-DHX29 (full-length, FL-DHX29) (protein, UniProt Q7Z478 1-1369)
chain: MGGKNKKHKAPAAAVVRAAVSASRAKSAEAGIAGEAQSKKPVSRPATAAAAAAGSREPRVKQGPKIYSFNSTNDSSGPANLDKSILKVVINNKLEQRIIGVINEHKKQNNDKGMISGRLTAKKLQDLYMALQAFSFKTKDIEDAMTNTLLYGGDLHSALDWLCLNLSDDALPEGFSQEFEEQQPKSRPKFQSPQIQATISPPLQPKTKTYEEDPKSKPKKEEKNMEVNMKEWILRYAEQQNEEEKNENSKSLEEEEKFDPNERYLHLAAKLLDAKEQAATFKLEKNKQGQKEAQEKIRKFQREMETLEDHPVFNPAMKISHQQNERKKPPVATEGESALNFNLFEKSAAATEEEKDKKKEPHDVRNFDYTARSWTGKSPKQFLIDWVRKNLPKSPNPSFEKVPVGRYWKCRVRVIKSEDDVLVVCPTILTEDGMQAQHLGATLALYRLVKGQSVHQLLPPTYRDVWLEWSDAEKKREELNKMETNKPRDLFIAKLLNKLKQQQQQQQQHSENKRENSEDPEESWENLVSDEDFSALSLESANVEDLEPVRNLFRKLQSTPKYQKLLKERQQLPVFKHRDSIVETLKRHRVVVVAGETGSGKSTQVPHFLLEDLLLNEWEASKCNIVCTQPRRISAVSLANRVCDELGCENGPGGRNSLCGYQIRMESRACESTRLLYCTTGVLLRKLQEDGLLSNVSHVIVDEVHERSVQSDFLLIILKEILQKRSDLHLILMSATVDSEKFSTYFTHCPILRISGRSYPVEVFHLEDIIEETGFVLEKDSEYCQKFLEEEEEVTINVTSKAGGIKKYQEYIPVQTGAHADLNPFYQKYSSRTQHAILYMNPHKINLDLILELLAYLDKSPQFRNIEGAVLIFLPGLAHIQQLYDLLSNDRRFYSERYKVIALHSILSTQDQAAAFTLPPPGVRKIVLATNIAETGITIPDVVFVIDTGRTKENKYHESSQMSSLVETFVSKASALQRQGRAGRVRDGFCFRMYTRERFEGFMDYSVPEILRVPLEELCLHIMKCNLGSPEDFLSKALDPPQLQVISNAMNLLRKIGACELNEPKLTPLGQHLAALPVNVKIGKMLIFGAIFGCLDPVATLAAVMTEKSPFTTPIGRKDEADLAKSALAMADSDHLTIYNAYLGWKKARQEGGYRSEITYCRRNFLNRTSLLTLEDVKQELIKLVKAAGFSSSTTSTSWEGNRASQTLSFQEIALLKAVLVAGLYDNVGKIIYTKSVDVTEKLACIVETAQGKAQVHPSSVNRDLQTHGWLLYQEKIRYARVYLRETTLITPFPVLLFGGDIEVQHRERLLSIDGWIYFQAPVKIAVIFKQLRVLIDSVLRKKLENPKMSLENDKILQIITELIKTENN
As to B1, the binding entry is “binds”.

B2: HA-DHX29a [1-530 aa] (domain or fragment, UniProt Q7Z478 1-530)
chain: MGGKNKKHKAPAAAVVRAAVSASRAKSAEAGIAGEAQSKKPVSRPATAAAAAAGSREPRVKQGPKIYSFNSTNDSSGPANLDKSILKVVINNKLEQRIIGVINEHKKQNNDKGMISGRLTAKKLQDLYMALQAFSFKTKDIEDAMTNTLLYGGDLHSALDWLCLNLSDDALPEGFSQEFEEQQPKSRPKFQSPQIQATISPPLQPKTKTYEEDPKSKPKKEEKNMEVNMKEWILRYAEQQNEEEKNENSKSLEEEEKFDPNERYLHLAAKLLDAKEQAATFKLEKNKQGQKEAQEKIRKFQREMETLEDHPVFNPAMKISHQQNERKKPPVATEGESALNFNLFEKSAAATEEEKDKKKEPHDVRNFDYTARSWTGKSPKQFLIDWVRKNLPKSPNPSFEKVPVGRYWKCRVRVIKSEDDVLVVCPTILTEDGMQAQHLGATLALYRLVKGQSVHQLLPPTYRDVWLEWSDAEKKREELNKMETNKPRDLFIAKLLNKLKQQQQQQQQHSENKRENSEDPEESWENLVSD
As to B2, the binding entry is on record as “binds”.
